Publication PMC4818104
Results are given in words; binding and its absence hold for the method and conditions named. Binding seen in cells or lysates may run through a third protein. Some binding calls cover weakened binding; strength is not graded here. Where a sequence is shown, tags or fusion partners need not be part of it.

Amino acid sequences for entries named in this document (tags omitted). A change or cut given only in a name is not applied to a line headed by its entry. Residues count along the entry.
GST fusion to WT ERα 176–253 peptide (P03372, residues 176-253): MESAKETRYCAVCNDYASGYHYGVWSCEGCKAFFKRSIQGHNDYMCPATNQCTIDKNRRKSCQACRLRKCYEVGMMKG

Tests used:
[1] = target: GST fusion to WT ERα 176–253 peptide (human) (UniProt P03372); assay: pull-down; purified GST fusion proteins mixed with cell lysates, rocked at 4°C overnight, washed 3 times with PBS, SDS-PAGE and immunoblotting; equal amount of each fusion protein; only the target purified
[2] = target: GST fusion to KRR->AAA mutant ERα 176–253 peptide (human) (UniProt P03372); assay: as above

binding [1]: binds
binding [2]: no binding
B1: His-tagged striatin AAs 1–203 (domain or fragment, UniProt O43815 1-203)
chain: MDEQAGPGVFFSNNHPGAGGAKGLGPLAEAAAAGDGAAAAGAARAQYSLPGILHFLQHEWARFEVERAQWEVERAELQAQIAFLQGERKGQENLKKDLVRRIKMLEYALKQERAKYHKLKYGTELNQGDMKPPSYDSDEGNETEVQPQQNSQLMWKQGRQLLRQYLQEVGYTDTILDVKSKRVRALLGFSSDVTDREDDKNQD
